Results are given in words; binding and its absence hold for the method and conditions named. Some results given as binding are weak or reduced against the parent protein; the word gives no strength. Sequences can lack the tags named with a protein.

These results are taken from doi:10.1101/2023.06.01.543357.

The target in the assay is face-to-face (FtF) histone from Thermococcus kodakarensis (HTkC) (Thermococcus kodakarensis) (UniProt Q5JDW7). Description: crystal structure.

B1: face-to-face (FtF) histone from Thermococcus kodakarensis (HTkC) (protein, UniProt Q5JDW7 1-59)
chain: MAEMLVKSKVKEFVKSVDPEMRVSPEFYDALEAEVKALVEKAIKRAQAEGRKTLYARHV
B1: the binding entry is recorded as “binds”.
